This is one part of the list.

The text below walks through data of the supplement of paper PMC12067093, “Discovery and optimisation of a covalent ligand for TRIM25 and its application to targeted protein ubiquitination” (Chemical Science, 2025).

Compound in the assay: CC1Cc2ccccc2N1C(=O)C1CCCN(C1)C(=O)CCl (mixture of isomers) [TRIM25 ligand 11 (diastereomer mixture)]
Put plainly: probe-labelled cysteine peptide fold change vs DMSO (competition) (log2 fold change); higher = less target engagement (more negative = stronger competition). As to conditions: THP-1, incubation time: 4 h.
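Also: competitive chemoproteomic profiling in live THP-1 cells with an iodoacetamide desthiobiotin (IA-DTB) probe, comparing probe-labelled peptide intensities in compound-treated cells against DMSO-treated controls.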

As to “DIS3_Q9Y2L1_213_LACLSEEGNEIESGK (UniProt Q9Y2L1)”, the “probe-labelled cysteine peptide fold change” value (10 µM) is 0.0746 and the “probe-labelled cysteine peptide fold change” value (50 µM) is 0.0489.

Turning to “DNM2_P50570_86_TEHAEFLHCK (UniProt P50570)”, the “probe-labelled cysteine peptide fold change” value is, setting by setting: (10 µM) -0.0461; (50 µM) 0.0442.

For “DMXL2_Q8TDJ6_1897_VGCPVLALEVLSK (UniProt Q8TDJ6)”, the “probe-labelled cysteine peptide fold change” value (10 µM) stood at 0.128 and the “probe-labelled cysteine peptide fold change” value (50 µM) was 0.0139.

For “DMXL1_Q9Y485_458_ELGCDK (UniProt Q9Y485)”, the “probe-labelled cysteine peptide fold change” value is -0.0601 (10 µM) and -0.109 (50 µM).

Regarding “DHX37_Q8IY37_456_TPLEDYSGECFR (UniProt Q8IY37)”, the “probe-labelled cysteine peptide fold change” value runs as follows: (10 µM) 0.0427; (50 µM) -0.00573.

Take “DNAAF5_Q86Y56_365_ILPALCHDITDWVVGTR (UniProt Q86Y56)”: the “probe-labelled cysteine peptide fold change” value is, setting by setting: (10 µM) -0.0161; (50 µM) -0.00308.

Turning to “DNM1_Q05193_607_QLELACETQEEVDSWK (UniProt Q05193)”, the “probe-labelled cysteine peptide fold change” value runs as follows: (10 µM) -0.108; (50 µM) -0.145.

On to “DIDO1_Q9BTC0_350_WRPGDADGTDCTSIGTIEQK (UniProt Q9BTC0)”, for which the “probe-labelled cysteine peptide fold change” value runs as follows: (10 µM) 0.153; (50 µM) -0.0755.

With “DHRS9_Q9BPW9_60_GFHVIAACLTESGSTALK (UniProt Q9BPW9)”, the “probe-labelled cysteine peptide fold change” value turned out to be 0.105 (10 µM) and 0.197 (50 µM).

“DLST_P36957_104_AVGDTVAEDEVVCEIETDK (UniProt P36957)”: the “probe-labelled cysteine peptide fold change” value was found to be 0.223 (10 µM) and 0.0825 (50 µM).

As to “DKC1_O60832_131_VTGCLIVCIER (UniProt O60832)”, the “probe-labelled cysteine peptide fold change” value runs as follows: (10 µM) -0.0126; (50 µM) 0.125.

As for “DNAJC21_Q5F1R6_3_CHYEALGVR (UniProt Q5F1R6)”, the “probe-labelled cysteine peptide fold change” value by setting is: (10 µM) 0.017; (50 µM) 0.0575.

Regarding “DNAJC2_Q99543_140_EGDNDYFTCITK (UniProt Q99543)”, the “probe-labelled cysteine peptide fold change” value is, setting by setting: (10 µM) -0.135; (50 µM) 0.0174.

Regarding “DICER1_Q9UPY3_443_EKPETNFPSPFTNILCGIIFVER (UniProt Q9UPY3)”, the “probe-labelled cysteine peptide fold change” value (10 µM) came to 0.029 and the “probe-labelled cysteine peptide fold change” value (50 µM) is -0.018.

Turning to “DLAT_P10515_586_NFSAIINPPQACILAIGASEDK (UniProt P10515)”, the “probe-labelled cysteine peptide fold change” value was -0.027 (10 µM) and 0.0113 (50 µM).

As for “DNAJA1_P31689_261_RGEDLFMCMDIQLVEALCGFQKPISTLDNR (UniProt P31689)”, the “probe-labelled cysteine peptide fold change” value (10 µM) is -0.404 and the “probe-labelled cysteine peptide fold change” value (50 µM) was -0.233.

As for “DIDO1_Q9BTC0_261_PKPECEGYDPNALYCICR (UniProt Q9BTC0)”, the “probe-labelled cysteine peptide fold change” value reads like this: (10 µM) 0.00316; (50 µM) -0.0292.

As to “DHX29_Q7Z478_1059_KIGACELNEPK (UniProt Q7Z478)”, the “probe-labelled cysteine peptide fold change” value runs as follows: (10 µM) -0.146; (50 µM) -0.0427.

With “DNAJC9_Q8WXX5_150_GDMDQIMESVLCVQYTEEPR (UniProt Q8WXX5)”, the “probe-labelled cysteine peptide fold change” value runs as follows: (10 µM) 0.0209; (50 µM) -0.0796.

Consider “DNAJC11_Q9NVH1_494_VIDVTVPLQCLVK (UniProt Q9NVH1)”, for which the “probe-labelled cysteine peptide fold change” value (10 µM) stood at 0.188 and the “probe-labelled cysteine peptide fold change” value (50 µM) was determined as 0.206.

Regarding “DHX8_Q14562_637_VSEEFGCCLGQEVGYTIR (UniProt Q14562)”, the “probe-labelled cysteine peptide fold change” value (10 µM) is 0.297 and the “probe-labelled cysteine peptide fold change” value (50 µM) was 0.476.

Regarding “DNAAF2_Q9NVR5_673_LQECSNSDQLQGK (UniProt Q9NVR5)”, the “probe-labelled cysteine peptide fold change” value runs as follows: (10 µM) 0.271; (50 µM) 0.0311.

For “DHX37_Q8IY37_766_LSCPITALGR (UniProt Q8IY37)”, the “probe-labelled cysteine peptide fold change” value is -0.0635 (10 µM) and 0.0316 (50 µM).

In the case of “DNM1L_O00429_470_LHDAIVEVVTCLLR (UniProt O00429)”, the “probe-labelled cysteine peptide fold change” value runs as follows: (10 µM) -0.0388; (50 µM) -0.00916.

For “DHX35_Q9H5Z1_233_FRDFFNQNETSDPARDTCVILTVEGR (UniProt Q9H5Z1)”, the “probe-labelled cysteine peptide fold change” value was 0.0474 (10 µM) and 0.193 (50 µM).

Regarding “DLST_P36957_245_EAQNTCAMLTTFNEIDMSNIQEMR (UniProt P36957)”, the “probe-labelled cysteine peptide fold change” value (10 µM) is 0.0231 and the “probe-labelled cysteine peptide fold change” value (50 µM) was -0.0362.

On to “DHX15_O43143_644_QNHESVQWCYDNFINYR (UniProt O43143)”, for which the “probe-labelled cysteine peptide fold change” value worked out at 0.237 (10 µM) and 0.162 (50 µM).

In the case of “DHX8_Q14562_670_ECLIDPDLTQYAIIMLDEAHER (UniProt Q14562)”, the “probe-labelled cysteine peptide fold change” value (10 µM) is -0.0271 and the “probe-labelled cysteine peptide fold change” value (50 µM) was determined as 0.0569.

Regarding “DHX36_Q9H2U1_977_SRDCAVLSAIIDLIK (UniProt Q9H2U1)”, the “probe-labelled cysteine peptide fold change” value (10 µM) is -0.0479 and the “probe-labelled cysteine peptide fold change” value (50 µM) is -0.156.

Take “DHX33_Q9H6R0_190_YSCVILDEAHER (UniProt Q9H6R0)”: the “probe-labelled cysteine peptide fold change” value reads like this: (10 µM) 0.199; (50 µM) 0.0264.

In the case of “DIS3_Q9Y2L1_799_LLAVAIGADCTYPELTDK (UniProt Q9Y2L1)”, the “probe-labelled cysteine peptide fold change” value reads like this: (10 µM) 0.0589; (50 µM) 0.113.

For “DNAJA1_P31689_177_IHQIGPGMVQQIQSVCMECQGHGER (UniProt P31689)”, the “probe-labelled cysteine peptide fold change” value reads like this: (10 µM) 0.112; (50 µM) 0.0675.

As for “DNAJC13_O75165_1432_ESPLLPAATELAFHTVNCSALNAEELRR (UniProt O75165)”, the “probe-labelled cysteine peptide fold change” value is, setting by setting: (10 µM) 0.188; (50 µM) 0.0943.

“DNAJA2_O60884_146_NVLCSACSGQGGK (UniProt O60884)”: the “probe-labelled cysteine peptide fold change” value is -0.15 (10 µM) and -0.0701 (50 µM).

Turning to “DNM1L_O00429_300_LLMHHIRDCLPELK (UniProt O00429)”, the “probe-labelled cysteine peptide fold change” value runs as follows: (10 µM) -0.355; (50 µM) -0.178.

With “DLGAP5_Q15398_129_YRPDMPCFLLSNQNAVK (UniProt Q15398)”, the “probe-labelled cysteine peptide fold change” value (10 µM) is -0.299 and the “probe-labelled cysteine peptide fold change” value (50 µM) was -0.594.

In the case of “DIS3L2_Q8IYB7_570_LAFTLDHETGLPQGCHIYEYR (UniProt Q8IYB7)”, the “probe-labelled cysteine peptide fold change” value reads like this: (10 µM) 0.25; (50 µM) 0.0489.

For the target “DHX29_Q7Z478_749_FSTYFTHCPILR (UniProt Q7Z478)”, the “probe-labelled cysteine peptide fold change” value is, setting by setting: (10 µM) 0.134; (50 µM) 0.225.

For “DHX29_Q7Z478_1019_VPLEELCLHIMK (UniProt Q7Z478)”, the “probe-labelled cysteine peptide fold change” value (10 µM) was -0.0744 and the “probe-labelled cysteine peptide fold change” value (50 µM) was 0.119.

Turning to “DHX58_Q96C10_322_TQILCAER (UniProt Q96C10)”, the “probe-labelled cysteine peptide fold change” value reads like this: (10 µM) 0.0599; (50 µM) -0.121.

Take “DNAJB1_P25685_179_VSLEEIYSGCTK (UniProt P25685)”: the “probe-labelled cysteine peptide fold change” value (10 µM) was determined as 0.0963 and the “probe-labelled cysteine peptide fold change” value (50 µM) came to 0.00761.

For the target “DHX57_Q6P158_453_INNPACHK (UniProt Q6P158)”, the “probe-labelled cysteine peptide fold change” value reads like this: (10 µM) 0.0948; (50 µM) 0.0338.

For the target “DHX16_O60231_37_CTSAEEFVQR (UniProt O60231)”, the “probe-labelled cysteine peptide fold change” value by setting is: (10 µM) 0.079; (50 µM) 0.0168.

In the case of “DHX30_Q7L2E3_286_LSTLTLLWPCPMTFVAK (UniProt Q7L2E3)”, the “probe-labelled cysteine peptide fold change” value runs as follows: (10 µM) -0.558; (50 µM) -0.944.

As to “DIDO1_Q9BTC0_296_CEEWFHGDCVGISEAR (UniProt Q9BTC0)”, the “probe-labelled cysteine peptide fold change” value is 0.116 (10 µM) and -0.082 (50 µM).

For “DNAJB12_Q9NXW2_363_MGTPSCSR (UniProt Q9NXW2)”, the “probe-labelled cysteine peptide fold change” value (10 µM) was -0.244 and the “probe-labelled cysteine peptide fold change” value (50 µM) was -0.0858.

In the case of “DIS3_Q9Y2L1_533_GTTVYLCEK (UniProt Q9Y2L1)”, the “probe-labelled cysteine peptide fold change” value by setting is: (10 µM) -0.101; (50 µM) -0.119.

On to “DHX33_Q9H6R0_190_KYSCVILDEAHER (UniProt Q9H6R0)”, for which the “probe-labelled cysteine peptide fold change” value reads like this: (10 µM) -0.0944; (50 µM) -0.0108.

“DNAJC7_Q99615_7_AAAAECDVVMAATEPELLDDQEAK (UniProt Q99615)”: the “probe-labelled cysteine peptide fold change” value is, setting by setting: (10 µM) 0.137; (50 µM) -0.195.

“DHX9_Q08211_777_VRPGFCFHLCSR (UniProt Q08211)”: the “probe-labelled cysteine peptide fold change” value by setting is: (10 µM) -0.151; (50 µM) 0.0595.

Turning to “DHX33_Q9H6R0_319_HLPDGCPAMLVLPLYASLPYAQQLR (UniProt Q9H6R0)”, the “probe-labelled cysteine peptide fold change” value was found to be 0.167 (10 µM) and 0.109 (50 µM).

In the case of “DNAJC13_O75165_2082_VIHALSENELCVR (UniProt O75165)”, the “probe-labelled cysteine peptide fold change” value is 0.113 (10 µM) and -0.121 (50 µM).

As to “DHX30_Q7L2E3_535_GGALLFCTVGILLR (UniProt Q7L2E3)”, the “probe-labelled cysteine peptide fold change” value is, setting by setting: (10 µM) -0.555; (50 µM) 0.0894.

In the case of “DGLUCY_Q7Z3D6_316_GIGHLLCK (UniProt Q7Z3D6)”, the “probe-labelled cysteine peptide fold change” value (10 µM) turned out to be 0.136 and the “probe-labelled cysteine peptide fold change” value (50 µM) was 0.0693.

For “DNAJC13_O75165_820_YECLAEEIK (UniProt O75165)”, the “probe-labelled cysteine peptide fold change” value (10 µM) was 0.367 and the “probe-labelled cysteine peptide fold change” value (50 µM) amounted to 0.248.

As for “DNASE2_O00115_327_GGGTLCAQLPALWK (UniProt O00115)”, the “probe-labelled cysteine peptide fold change” value reads like this: (10 µM) -0.0717; (50 µM) -0.0161.

With “DNAJA3_Q96EY1_292_GSIIISPCVVCR (UniProt Q96EY1)”, the “probe-labelled cysteine peptide fold change” value by setting is: (10 µM) 0.144; (50 µM) 0.185.

“DHRS7B_Q6IAN0_220_HATQAFFDCLR (UniProt Q6IAN0)”: the “probe-labelled cysteine peptide fold change” value was 0.107 (10 µM) and -0.128 (50 µM).

Turning to “DHX38_Q92620_1072+1074_CICAAYFHQAAK (UniProt Q92620)”, the “probe-labelled cysteine peptide fold change” value reads like this: (10 µM) 0.0551; (50 µM) -0.0197.

On to “DHX30_Q7L2E3_118_QAAAAACQLFK (UniProt Q7L2E3)”, for which the “probe-labelled cysteine peptide fold change” value reads like this: (10 µM) -0.0733; (50 µM) -0.0927.

Regarding “DIAPH2_O60879_283_ILSAICIVGEENILDK (UniProt O60879)”, the “probe-labelled cysteine peptide fold change” value was 0.111 (10 µM) and 0.118 (50 µM).
